# Values of other authors, collected in patent US20220087961A1, “TREATMENT METHODS OF TRIPHENYL CALCILYTIC COMPOUNDS” (CALCILYTIX THERAPEUTICS, INC., priority 2020, published 2022).
# For at least one compound, name, drawing or mass did not settle the structure.
# Tested on: healthy volunteers and postmenopausal women with osteoporosis
# Settings: once daily administration, osteoporosis program; cited from earlier work
structure (smiles),measurement,value
"Cc1cc(-c2ccccc2[C@@H](C)OC[C@H](O)CNC(C)(C)Cc2ccc(Cl)c(F)c2)ccc1C(=O)O [CLTX-305, encaleret]",time to transient increase (spike) in iPTH,≤ 2 h
